Results are given in words; binding and its absence hold for the method and conditions named. For some of these results: Binding seen in cells or lysates may run through a third protein. Some results given as binding are weak or reduced against the parent protein; the word gives no strength. Sequences can lack the tags named with a protein.

By UniProt entry, the sequences of proteins in these tests, tags left out. Where a name states a change or a piece, a line headed by the entry shows the natural chain unless it says otherwise.
UniProt Q9Z148: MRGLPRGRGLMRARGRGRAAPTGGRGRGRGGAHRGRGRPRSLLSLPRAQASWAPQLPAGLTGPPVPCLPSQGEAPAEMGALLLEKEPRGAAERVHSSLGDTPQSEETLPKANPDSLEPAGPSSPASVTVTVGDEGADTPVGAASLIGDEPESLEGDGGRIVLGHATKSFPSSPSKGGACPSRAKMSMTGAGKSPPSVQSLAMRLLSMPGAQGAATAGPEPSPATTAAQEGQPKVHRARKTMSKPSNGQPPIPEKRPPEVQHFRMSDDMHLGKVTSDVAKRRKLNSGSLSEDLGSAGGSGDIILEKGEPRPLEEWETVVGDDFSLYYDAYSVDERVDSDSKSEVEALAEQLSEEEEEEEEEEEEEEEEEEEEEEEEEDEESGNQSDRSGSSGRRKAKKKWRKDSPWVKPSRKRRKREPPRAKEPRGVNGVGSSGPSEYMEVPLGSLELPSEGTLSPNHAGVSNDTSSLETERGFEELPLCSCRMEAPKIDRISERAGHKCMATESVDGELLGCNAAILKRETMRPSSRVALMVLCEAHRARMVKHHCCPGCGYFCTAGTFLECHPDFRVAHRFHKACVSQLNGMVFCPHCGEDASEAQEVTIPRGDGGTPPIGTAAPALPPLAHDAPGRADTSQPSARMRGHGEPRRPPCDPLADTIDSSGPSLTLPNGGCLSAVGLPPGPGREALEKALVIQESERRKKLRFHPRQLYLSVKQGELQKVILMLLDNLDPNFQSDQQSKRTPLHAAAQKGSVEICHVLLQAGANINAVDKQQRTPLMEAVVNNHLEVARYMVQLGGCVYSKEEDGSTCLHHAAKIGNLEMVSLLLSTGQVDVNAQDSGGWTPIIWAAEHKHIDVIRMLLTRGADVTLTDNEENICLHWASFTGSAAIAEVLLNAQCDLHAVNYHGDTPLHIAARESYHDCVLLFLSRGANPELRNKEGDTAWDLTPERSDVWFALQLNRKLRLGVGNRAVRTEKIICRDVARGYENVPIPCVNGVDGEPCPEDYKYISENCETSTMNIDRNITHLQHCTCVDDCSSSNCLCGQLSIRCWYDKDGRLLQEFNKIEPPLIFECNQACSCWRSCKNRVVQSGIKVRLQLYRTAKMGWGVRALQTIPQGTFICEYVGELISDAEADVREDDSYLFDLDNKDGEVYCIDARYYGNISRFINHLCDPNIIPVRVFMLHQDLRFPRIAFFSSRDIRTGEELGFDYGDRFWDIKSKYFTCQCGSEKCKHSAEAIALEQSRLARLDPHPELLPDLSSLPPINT
UniProt Q96KQ7: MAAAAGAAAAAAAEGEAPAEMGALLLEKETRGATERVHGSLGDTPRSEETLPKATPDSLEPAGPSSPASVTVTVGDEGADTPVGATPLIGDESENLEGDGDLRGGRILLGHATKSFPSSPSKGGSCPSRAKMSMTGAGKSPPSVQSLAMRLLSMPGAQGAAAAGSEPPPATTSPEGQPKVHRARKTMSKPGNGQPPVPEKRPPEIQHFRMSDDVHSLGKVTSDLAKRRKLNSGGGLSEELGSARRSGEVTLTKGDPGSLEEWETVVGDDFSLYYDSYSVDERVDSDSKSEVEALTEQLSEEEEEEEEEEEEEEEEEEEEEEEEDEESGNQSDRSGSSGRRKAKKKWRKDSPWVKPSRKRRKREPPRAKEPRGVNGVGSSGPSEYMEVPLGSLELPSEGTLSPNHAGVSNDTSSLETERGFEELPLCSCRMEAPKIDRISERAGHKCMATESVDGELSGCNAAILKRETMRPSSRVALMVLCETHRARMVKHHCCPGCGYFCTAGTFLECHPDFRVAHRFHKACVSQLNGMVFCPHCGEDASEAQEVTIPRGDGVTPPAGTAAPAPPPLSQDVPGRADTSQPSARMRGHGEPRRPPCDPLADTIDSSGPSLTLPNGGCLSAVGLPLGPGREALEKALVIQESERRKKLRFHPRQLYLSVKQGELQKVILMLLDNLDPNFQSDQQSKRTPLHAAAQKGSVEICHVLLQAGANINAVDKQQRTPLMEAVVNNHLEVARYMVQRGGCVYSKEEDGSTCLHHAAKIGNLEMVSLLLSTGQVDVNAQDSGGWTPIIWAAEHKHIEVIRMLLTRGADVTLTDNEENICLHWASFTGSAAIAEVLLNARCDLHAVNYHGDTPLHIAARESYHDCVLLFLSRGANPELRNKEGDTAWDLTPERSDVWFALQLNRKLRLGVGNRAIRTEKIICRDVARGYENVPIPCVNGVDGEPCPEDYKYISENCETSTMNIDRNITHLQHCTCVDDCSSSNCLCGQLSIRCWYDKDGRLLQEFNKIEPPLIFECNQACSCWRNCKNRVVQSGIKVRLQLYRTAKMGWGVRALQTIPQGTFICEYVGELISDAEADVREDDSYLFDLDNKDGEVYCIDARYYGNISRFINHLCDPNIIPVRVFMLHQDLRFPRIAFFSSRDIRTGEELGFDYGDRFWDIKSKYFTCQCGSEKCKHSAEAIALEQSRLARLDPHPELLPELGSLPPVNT

The target of test [1] is YFP-LacI-G9a-H1166K (mouse) (UniProt Q9Z148). Briefly: LacI tethering to a lac operator array (CLTon locus), recruitment seen by fluorescence microscopy; U2OS 2-6-3 CLTon cells, condensed heterochromatic locus (no doxycycline); LacI fusion tethered, fluorescent partner scored at the locus.
The target of test [2] is HA-G9a (full length) (human) (UniProt Q96KQ7). Put plainly: co-IP; sequential IP from triply transfected U2OS: HA IP, HA peptide elution, then T7 antibody IP; immunoblot. (In general: Immunoblotting shows a protein as a band on a membrane.)
Test [3] deals with T1, T7-ORCA (full-length) (human) (UniProt Q9UFC0).
T1 sequence: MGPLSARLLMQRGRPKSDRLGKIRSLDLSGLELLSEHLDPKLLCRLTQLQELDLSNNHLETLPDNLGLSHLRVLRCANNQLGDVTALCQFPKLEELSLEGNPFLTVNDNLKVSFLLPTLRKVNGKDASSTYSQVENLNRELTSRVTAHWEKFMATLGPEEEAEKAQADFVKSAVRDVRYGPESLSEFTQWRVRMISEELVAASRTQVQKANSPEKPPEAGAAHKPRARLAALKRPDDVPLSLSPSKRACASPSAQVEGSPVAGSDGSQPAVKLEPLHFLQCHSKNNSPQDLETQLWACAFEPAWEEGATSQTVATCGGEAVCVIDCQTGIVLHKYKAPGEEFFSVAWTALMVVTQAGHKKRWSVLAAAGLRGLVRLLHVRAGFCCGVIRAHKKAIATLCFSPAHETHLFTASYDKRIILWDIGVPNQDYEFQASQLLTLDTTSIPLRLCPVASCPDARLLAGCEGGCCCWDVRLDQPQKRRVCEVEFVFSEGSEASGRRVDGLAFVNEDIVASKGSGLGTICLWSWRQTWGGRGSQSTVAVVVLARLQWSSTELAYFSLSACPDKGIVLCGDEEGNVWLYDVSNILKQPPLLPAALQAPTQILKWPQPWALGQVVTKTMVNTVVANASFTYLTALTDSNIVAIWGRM
The test is described as above.

In test [4] the target is T1, T7-ORCA (full-length) (human). Put plainly: co-IP; co-IP after Benzonase treatment of the lysate (1000 U, 20 min RT); data not shown.
Test [5] concerns the target HA-G9a (full length) (human) (UniProt Q96KQ7). Briefly: co-IP; transient co-transfection in U2OS; IP buffer 50 mM Tris pH 7.4, 150 mM NaCl, 10% glycerol, 0.1% NP-40, 1 mM DTT; antibody-conjugated agarose (ORCA, T7 or HA antibody) overnight; immunoblot; for G9a-Suv39H1 also in control and ORCA siRNA cells.
Test [6] concerns the target T1, T7-ORCA (full-length) (human). The test is described as above.
Test [7] shares this target. Briefly: co-IP; T7 antibody IP from co-transfected cells in the presence of ethidium bromide (50 μg/ml in lysate, 80 μg/ml in washes).

B1: CFP-ORCA (protein, UniProt Q9UFC0 1-647)
chain: T1 sequence
In the case of B1, the binding entry in test [1] is reported as “no binding”.

B2: Flag-Suv39H1 (enzyme, UniProt O43463 1-412)
chain: MAENLKGCSVCCKSSWNQLQDLCRLAKLSCPALGISKRNLYDFEVEYLCDYKKIREQEYYLVKWRGYPDSESTWEPRQNLKCVRILKQFHKDLERELLRRHHRSKTPRHLDPSLANYLVQKAKQRRALRRWEQELNAKRSHLGRITVENEVDLDGPPRAFVYINEYRVGEGITLNQVAVGCECQDCLWAPTGGCCPGASLHKFAYNDQGQVRLRAGLPIYECNSRCRCGYDCPNRVVQKGIRYDLCIFRTDDGRGWGVRTLEKIRKNSFVMEYVGEIITSEEAERRGQIYDRQGATYLFDLDYVEDVYTVDAAYYGNISHFVNHSCDPNLQVYNVFIDNLDERLPRIAFFATRTIRAGEELTFDYNMQVDPVDMESTRMDSNFGLAGLPGSPKKRVRIECKCGTESCRKYLF
Take B2: the binding entry in test [2], in test [3], in test [4], in test [5], in test [6] and in test [7] was “binds” each time.

These data come from article PMC4442312 (eLife, 2015).
